According to PubChem BioAssay AID485353 (National Center for Advancing Translational Sciences (NCATS), 2010):
The campaign covered roughly 330,000 compounds. About 610 (0.18%) were called active. Inconclusive means that the source gave no clear call. Such entries were picked first, then a sample of the others. Calls come from the whole dose curve. Where the call is inconclusive, the potency comes from a doubtful curve fit.

Assay: qHTS of Yeast-based Assay for SARS-CoV PLP; note: nearly all actives have a fitted effect of over 55% in size; for activity, positive = growth rescue: 0% is about no effect
Conditions: S. cerevisiae expressing SARS-CoV PLpro; Potency: growth rescue; activity, positive = growth rescue: at 32.9 µM (top of the series)
Potency is the fitted concentration of half-maximal effect.

**Q.** Which “activity, positive = growth rescue” value does the source give for `C/C(=N\Nc1ccc2nncn2n1)c1ccc(Cl)s1` here?
**A.** inactive: -1.21%

**Q.** Which “activity, positive = growth rescue” value does the source give for `Cc1cccc([C@@H]2[C@@H]3C(=O)N(Cc4ccccc4)C(=O)[C@@H]3[C@]3(C)C(=O)N(c4cccc(F)c4)C(=O)N23)c1` here?
**A.** inactive: -8.5%

**Q.** With `COC(=O)C1CN(C(=O)COc2ccc(C)c(C)c2)c2ccccc2O1` (centres undefined) as the compound, how does the “activity, positive = growth rescue” value read?
**A.** inactive: -4.38%

**Q.** For `CCn1c(O)c(N=Nc2ccc3ccccc3n2)c2ccccc21`, which “activity, positive = growth rescue” value is on record?
**A.** inactive: 0.449%

**Q.** For `O=C(NCc1cccnc1)/C(=C\c1ccc(-c2ccc(Br)cc2)o1)S(=O)(=O)c1ccccc1`, which Potency is on record?
**A.** inconclusive: 1.78 µM [activator, partial curve]

**Q.** Which Potency does the source give for `O=C(CN1CCS(=O)(=O)CC1)N/N=C/c1cccc(C(F)(F)F)c1` here?
**A.** inconclusive: 20 µM [activator, partial curve, poor fit]

**Q.** With `O=C(CSc1nc2ccccc2c(=O)n1Cc1ccc(Cl)cc1)NCc1cccs1` as the compound, how does the Potency read?
**A.** inconclusive: 3.16 µM [activator, partial curve]

**Q.** Which Potency does the source give for `COc1cccc(C2CC(c3cccs3)Nc3ncnn32)c1` (centres undefined) here?
**A.** inconclusive: 3.55 µM [activator, single point]

**Q.** With `Cc1cccc2cc3c(N)c(C(=O)N4CCOCC4)sc3nc12` as the compound, how does the Potency read?
**A.** inconclusive: 15.8 µM [activator, single point]

**Q.** Which Potency does the source give for `CCN(CC)C1CCN(C(=O)CCn2nnnc2CN2CCOCC2)C1` (centres undefined) here?
**A.** inconclusive: 20 µM [activator, single point]

**Q.** With `COc1cccc(NC(=O)c2cnc[nH]2)c1` as the compound, how does the “activity, positive = growth rescue” value read?
**A.** inactive: -0.294%

**Q.** For `CSCC[C@H](NC(=O)Nc1ccc(C)cc1C)C(=O)O`, which Potency is on record?
**A.** inconclusive: 11.2 µM [activator, single point]

**Q.** With `O=c1c2ccccc2c(C=Nc2cccc(S(=O)(=O)NC3=NCCCCC3)c2)c(O)n1Cc1ccccc1` as the compound, how does the “activity, positive = growth rescue” value read?
**A.** inactive: 0.0719%

**Q.** For `NC(=O)c1ccccc1N/C=C/C(=O)c1cccs1`, which Potency is on record?
**A.** inconclusive: 11.2 µM [activator, partial curve, poor fit]

**Q.** For `S=C(NCc1ccccc1)NCc1ccc2c(c1)OCO2`, which Potency is on record?
**A.** inconclusive: 11.2 µM [activator, partial curve, poor fit]

**Q.** With `Nc1c(S(=O)(=O)c2ccccc2)c2nc3ccccc3nc2n1CCN1CCOCC1` as the compound, how does the “activity, positive = growth rescue” value read?
**A.** inactive: 26.2%

**Q.** Which Potency does the source give for `CCCCNC(=O)/C(C#N)=C/c1ccc(-c2ccc(S(=O)(=O)N3CCOCC3)cc2)o1` here?
**A.** inconclusive: 3.16 µM [activator, full curve, poor fit]

**Q.** Which “activity, positive = growth rescue” value does the source give for `CC(C)OCCCNC(=O)C(NS(=O)(=O)c1ccc2c(c1)c(=O)n(C)c(=O)n2C)c1ccccc1` (centres undefined) here?
**A.** inactive: 0.293%

**Q.** Which Potency does the source give for `COC(=O)Cc1ccc(NC(=O)c2ccc3c(c2)C(=O)N(Cc2ccco2)C3=O)cc1` here?
**A.** inconclusive: 20 µM [activator, single point]

**Q.** With `O=C(NCCCN1CCN(c2ccccc2)CC1)Nc1ccccc1C(F)(F)F` as the compound, how does the Potency read?
**A.** inconclusive: 2.51 µM [activator, single point]

**Q.** Which “activity, positive = growth rescue” value does the source give for `Cc1cccnc1NC(=O)c1sc2ccccc2c1Cl` here?
**A.** inactive: -16.2%

**Q.** With `CCCCNC(=O)Oc1c(Br)cc2sc(=O)oc2c1Br` as the compound, how does the Potency read?
**A.** inconclusive: 12.6 µM [activator, single point]

**Q.** For `NC(=O)c1c(NC(=O)c2cccs2)sc2c1CCCCCC2`, which Potency is on record?
**A.** inconclusive: 20 µM [activator, single point]

**Q.** For `N#Cc1cccc(NC(=O)COC(=O)c2cccc(N3C(=O)c4ccccc4C3=O)c2)c1`, which Potency is on record?
**A.** inconclusive: 7.94 µM [activator, partial curve, poor fit]

**Q.** With `Cc1cc(C(=O)CSc2n[nH]c(N)n2)c(C)n1-c1ccccc1` as the compound, how does the “activity, positive = growth rescue” value read?
**A.** inactive: -6.01%

**Q.** With `Cc1ccc2c(CSc3nnc4ccccn34)cc(=O)oc2c1C` as the compound, how does the Potency read?
**A.** active: 3.55 µM

**Q.** With `CN1C(=O)c2ccccc2Sc2ccc(NC(=O)NC3CC3)cc21` as the compound, how does the Potency read?
**A.** inconclusive: 3.98 µM [activator, single point]

**Q.** With `COc1cc(NC(=S)Nc2ccc3c(c2)OCCO3)cc(OC)c1OC` as the compound, how does the “activity, positive = growth rescue” value read?
**A.** inactive: 0.986%

**Q.** With `COC(=O)c1c(NC(=O)c2ccn(C)n2)sc2c1CCC2` as the compound, how does the “activity, positive = growth rescue” value read?
**A.** inactive: -1.96%

**Q.** For `Cc1ccc(NC(=S)N2CCN(c3ccccn3)CC2)c(C)c1`, which “activity, positive = growth rescue” value is on record?
**A.** inactive: -1.27%

**Q.** Which Potency does the source give for `Cc1cc(NS(=O)(=O)c2ccc(NC(=O)CSc3nnc(-c4ccco4)n3N)cc2)nc(C)n1` here?
**A.** inconclusive: 20 µM [activator, single point]

**Q.** For `Cc1nnc(SCC(=O)NC2CC2)n1-c1ccccc1`, which Potency is on record?
**A.** inconclusive: 3.98 µM [activator, single point]

**Q.** With `CNC(=S)N1C2CCC1CC(NC(=O)NC13CC4CC(CC(C4)C1)C3)C2` (centres undefined) as the compound, how does the Potency read?
**A.** inconclusive: 3.55 µM [activator, single point]

**Q.** With `CCNC(=O)COC(=O)c1csc2c1CCCC2` as the compound, how does the “activity, positive = growth rescue” value read?
**A.** inactive: -2.89%

**Q.** For `CC(=O)Nc1nc2c(c3c1c(=O)oc1ccccc13)CCCCC2`, which Potency is on record?
**A.** inconclusive: 20 µM [activator, single point]

**Q.** For `O=C(NCc1ccc2c(c1)OCO2)C1COc2ccccc2O1` (centres undefined), which Potency is on record?
**A.** inconclusive: 20 µM [activator, single point]

**Q.** Which “activity, positive = growth rescue” value does the source give for `Cc1ccccc1C(=O)Nc1ccccc1NC(=O)c1ccccc1Br` here?
**A.** inactive: 1.62%

**Q.** For `O=C(CN1CCOC1=O)N1CCCC(N2CCN(c3cccc(C(F)(F)F)c3)CC2)C1` (centres undefined), which “activity, positive = growth rescue” value is on record?
**A.** inactive: 5.3%

**Q.** Which Potency does the source give for `COc1ccc(Cn2ccnc2SCC(=O)NC2CCCC2)cc1` here?
**A.** inconclusive: 0.316 µM [activator, partial curve, poor fit]

**Q.** Which Potency does the source give for `O=C1CC(c2cccnc2)=NN1c1ccccc1` here?
**A.** inconclusive: 17.8 µM [activator, single point]

**Q.** Which Potency does the source give for `COC(=O)c1cc(NS(=O)(=O)c2ccc(N3CCOCC3)c(N)c2)cc(C(=O)OC)c1` here?
**A.** inconclusive: 0.891 µM [activator, full curve, poor fit]

**Q.** For `CCOC(=O)C(Cc1ccccc1)(Cc1ccccc1)C(C)=O`, which “activity, positive = growth rescue” value is on record?
**A.** inactive: -3.71%

**Q.** With `O=C1c2cccc([N+](=O)[O-])c2C(=O)N1c1ccccc1` as the compound, how does the Potency read?
**A.** inconclusive: 11.2 µM [activator, partial curve]

**Q.** For `CCN(CC)c1ccc(/C=N/NC(=O)c2cccc(S(=O)(=O)Nc3ccccc3OC)c2)c(O)c1`, which Potency is on record?
**A.** active: 1.78 µM

**Q.** Which Potency does the source give for `COc1ccc(N(C(C)C(=O)NN=C2CCCC2)S(C)(=O)=O)cc1` (centres undefined) here?
**A.** active: 11.2 µM

**Q.** For `Cc1ccn(CCC(=O)Nc2ccc3c(c2)OCO3)n1`, which Potency is on record?
**A.** inconclusive: 3.55 µM [activator, single point]

**Q.** With `O=C(Nc1ccccc1C(F)(F)F)c1ccc(CN2CCC(Cc3ccccc3)CC2)cc1` as the compound, how does the “activity, positive = growth rescue” value read?
**A.** inactive: -1.08%

**Q.** Which “activity, positive = growth rescue” value does the source give for `O=C(CCCN1C(=O)/C(=C/c2cccs2)SC1=S)Nc1ccccc1O` here?
**A.** inactive: 1.2%

**Q.** For `COc1ccc(OC)c(-c2cc(C(=O)Nc3c(C)n(C)n(-c4ccccc4)c3=O)no2)c1`, which Potency is on record?
**A.** inconclusive: 2.51 µM [activator, partial curve]

**Q.** Which Potency does the source give for `CCNC(=S)NN(c1ccccc1)c1ccccc1` here?
**A.** active: 14.1 µM

**Q.** Which “activity, positive = growth rescue” value does the source give for `CCOC(=O)C1(Cc2cccc(Cl)c2)CCCN(C(=O)c2cnn(CC)c2)C1` (centres undefined) here?
**A.** inactive: -0.527%

**Q.** With `O=C(Nc1ccc(Br)cc1)C1CCN(C(=O)c2ccco2)CC1` as the compound, how does the “activity, positive = growth rescue” value read?
**A.** inactive: -4.48%

**Q.** Which Potency does the source give for `CC(C)C(NS(=O)(=O)c1ccccc1)C(=O)N1CCCCCC1` (centres undefined) here?
**A.** inconclusive: 3.98 µM [activator, single point]

**Q.** With `O=C(CN(CCO)c1ccccc1)Nc1ccc(Cl)c(S(=O)(=O)N2CCOCC2)c1` as the compound, how does the “activity, positive = growth rescue” value read?
**A.** inactive: -0.289%

**Q.** For `Cc1ccc(C(=O)Nc2ccc(N3CCOCC3)cc2N2CCOCC2)cc1`, which Potency is on record?
**A.** inconclusive: 2.51 µM [activator, full curve, poor fit]

**Q.** Which Potency does the source give for `Cc1ccc(C2CC2C(=O)NNC(=S)Nc2cccc(Cl)c2)cc1` (centres undefined) here?
**A.** active: 14.1 µM

**Q.** With `COc1cccc(OCc2nnc(SCC(=O)OC3CCCCC3)n2C)c1` as the compound, how does the “activity, positive = growth rescue” value read?
**A.** inactive: -1.18%

**Q.** For `CCN1CCN(C(=S)c2ccc(Br)cc2)CC1`, which Potency is on record?
**A.** inconclusive: 3.98 µM [activator, single point]

**Q.** With `CC12CCC(C(=O)N(NC(=O)c3ccccc3O)C1=O)C2(C)C` (centres undefined) as the compound, how does the Potency read?
**A.** active: 2.82 µM

**Q.** With `Cc1cc(C)cc(NC(=S)/N=C(\N)Nc2nc(C)c3ccccc3n2)c1` as the compound, how does the Potency read?
**A.** inconclusive: 10 µM [activator, single point]

**Q.** For `Cc1ccc(NC(=S)/N=C(\N)Nc2nc(C)c3cc(C)ccc3n2)c(C)c1`, which Potency is on record?
**A.** inconclusive: 20 µM [activator, single point]

**Q.** Which Potency does the source give for `CCOC(=O)CSc1nc2ccccc2c(=O)n1C` here?
**A.** inconclusive: 20 µM [activator, single point]

**Q.** For `CCC(=O)Nc1c(C(=O)Nc2cccc(OC)c2)oc2ccccc12`, which “activity, positive = growth rescue” value is on record?
**A.** inactive: 0.498%

**Q.** For `O=C(O)CCC(=O)N1CCc2cc(S(=O)(=O)NCCc3ccc(Cl)cc3)ccc21`, which “activity, positive = growth rescue” value is on record?
**A.** inactive: -2.39%

**Q.** Which Potency does the source give for `COc1ccc2c(Cl)c(C(=O)NC3CCS(=O)(=O)C3)sc2c1` (centres undefined) here?
**A.** inconclusive: 5.01 µM [activator, partial curve]

**Q.** For `Cn1c(=O)c2nnn(/N=C(\c3ccccc3)C3CC3)c2n(C)c1=O`, which Potency is on record?
**A.** inconclusive: 3.55 µM [activator, single point]

**Q.** For `Cc1nn(C(=O)CCC(=O)NCc2ccc(OC(C)C)cc2)c2ccccc12`, which Potency is on record?
**A.** inconclusive: 3.16 µM [activator, single point]

**Q.** For `Cc1cc(NC(c2ccc(Cl)cc2)c2ccc3cccnc3c2O)no1` (centres undefined), which Potency is on record?
**A.** inconclusive: 3.55 µM [activator, single point]

**Q.** For `COc1ccc(/C=C/C(=O)Nc2ccc(-n3nncc3-c3ccccc3)cc2)cc1OC`, which Potency is on record?
**A.** inconclusive: 12.6 µM [activator, single point]

**Q.** Which Potency does the source give for `COc1ccc(-c2nc(SC)n(C(=O)c3ccco3)n2)cc1` here?
**A.** inconclusive: 3.98 µM [activator, single point]

**Q.** For `O=C(CSc1nnc(-c2ccco2)n1-c1ccccc1Cl)Nc1cccc(C(=O)O)c1`, which Potency is on record?
**A.** inconclusive: 1 µM [activator, partial curve]

**Q.** Which Potency does the source give for `CCN(CC)c1ccc2c(c1)CCCN2` here?
**A.** active: 12.6 µM

**Q.** Which Potency does the source give for `CCCc1[nH]nc2c1C(c1cccc(OC)c1)C(C#N)=C(N)O2` (centres undefined) here?
**A.** inconclusive: 12.6 µM [activator, partial curve]

**Q.** With `O=C1CCCN1CC(=O)N1CCCC(Nc2cccc(F)c2)C1` (centres undefined) as the compound, how does the Potency read?
**A.** inconclusive: 11.2 µM [activator, single point]
